These are yes or no findings as the source states them, for the method shown. In cells and extracts the contact can be indirect. A yes stands for co-enrichment or nearness to the bait. Other partners may have been found. Tags and fused reporters may be left off the sequences shown.
Molecular target: T1, CLPB-V5-TurboID (full-length human caseinolytic peptidase B fused to V5 and TurboID) (human) (UniProt Q9H078)
T1 sequence: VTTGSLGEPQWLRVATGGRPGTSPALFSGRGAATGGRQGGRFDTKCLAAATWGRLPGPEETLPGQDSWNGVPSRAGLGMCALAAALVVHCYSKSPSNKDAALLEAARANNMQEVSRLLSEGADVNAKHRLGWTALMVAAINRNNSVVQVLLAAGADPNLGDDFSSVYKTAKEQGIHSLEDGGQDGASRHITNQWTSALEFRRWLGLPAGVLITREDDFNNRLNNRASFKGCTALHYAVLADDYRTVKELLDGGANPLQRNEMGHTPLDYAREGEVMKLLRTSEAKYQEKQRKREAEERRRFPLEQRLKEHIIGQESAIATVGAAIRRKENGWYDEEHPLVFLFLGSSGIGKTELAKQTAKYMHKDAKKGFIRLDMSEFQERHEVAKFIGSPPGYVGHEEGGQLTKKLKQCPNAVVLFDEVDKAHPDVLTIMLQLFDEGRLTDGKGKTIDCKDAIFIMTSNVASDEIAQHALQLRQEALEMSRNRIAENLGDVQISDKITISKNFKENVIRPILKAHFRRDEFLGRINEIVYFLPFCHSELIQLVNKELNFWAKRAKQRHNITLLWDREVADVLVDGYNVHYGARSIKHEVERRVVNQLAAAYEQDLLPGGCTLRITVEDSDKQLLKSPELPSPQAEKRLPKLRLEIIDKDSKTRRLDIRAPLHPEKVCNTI
Assay: proximity labelling; CLPB-V5-TurboID co-expressed with EGFP, EGFP-HTT-Q23 or EGFP-HTT-Q79 in HEK293T cells; 50 uM biotin, 30 min, 37 °C; lysis in 20 mM HEPES-NaOH pH 7.5, 150 mM NaCl, 2 mM CaCl2, 2 mM MgCl2, 1% Triton X-100; streptavidin pull-down of biotinylated proteins and anti-GFP blot (results and legend)

Protein sequences, listed by entry. Tags and fused reporters are not part of them. Residues count along the entry.
UniProt P42858, residues 1-90: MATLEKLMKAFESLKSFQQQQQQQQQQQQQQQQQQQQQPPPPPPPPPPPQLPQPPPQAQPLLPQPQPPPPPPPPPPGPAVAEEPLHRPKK

| binding | Substance |
| --- | --- |
| binds | EGFP-tagged HTT-Q23 (exon 1 fragment of wild-type human huntingtin, aa 1-90) (from UniProt P42858 1-90) (domain or fragment) |
| binds | EGFP-tagged HTT-Q79 (exon 1 fragment of mutant human huntingtin, aa 1-146) (domain or fragment) |
